Measurements published in article PMC6245143 (Biophysics Reports, 2018).

Experiment: peptide synthesis
Conditions: conjugation step

With HYNIC–cHK the conjugation yield was 56% and the “final HPLC purity” value (HPLC) was greater than 95%.
